Source: paper PMC12786336
No constants are given. Whether binding was seen depends on the method and setting. In cells and extracts the contact can be indirect. Some results given as binding are weak or reduced against the parent protein; the word gives no strength.

Protein sequences, listed by entry. Tags and fused reporters are not part of them.
UniProt Q62093: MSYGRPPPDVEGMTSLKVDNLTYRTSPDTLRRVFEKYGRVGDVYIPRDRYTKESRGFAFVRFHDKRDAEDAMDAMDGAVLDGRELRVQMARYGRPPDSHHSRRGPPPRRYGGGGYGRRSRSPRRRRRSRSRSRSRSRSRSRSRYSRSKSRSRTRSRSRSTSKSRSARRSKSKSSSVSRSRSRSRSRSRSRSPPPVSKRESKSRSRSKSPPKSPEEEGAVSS

Target: T1, N-acetyltransferase 10 (NAT10) (UniProt Q8K224)
T1 sequence: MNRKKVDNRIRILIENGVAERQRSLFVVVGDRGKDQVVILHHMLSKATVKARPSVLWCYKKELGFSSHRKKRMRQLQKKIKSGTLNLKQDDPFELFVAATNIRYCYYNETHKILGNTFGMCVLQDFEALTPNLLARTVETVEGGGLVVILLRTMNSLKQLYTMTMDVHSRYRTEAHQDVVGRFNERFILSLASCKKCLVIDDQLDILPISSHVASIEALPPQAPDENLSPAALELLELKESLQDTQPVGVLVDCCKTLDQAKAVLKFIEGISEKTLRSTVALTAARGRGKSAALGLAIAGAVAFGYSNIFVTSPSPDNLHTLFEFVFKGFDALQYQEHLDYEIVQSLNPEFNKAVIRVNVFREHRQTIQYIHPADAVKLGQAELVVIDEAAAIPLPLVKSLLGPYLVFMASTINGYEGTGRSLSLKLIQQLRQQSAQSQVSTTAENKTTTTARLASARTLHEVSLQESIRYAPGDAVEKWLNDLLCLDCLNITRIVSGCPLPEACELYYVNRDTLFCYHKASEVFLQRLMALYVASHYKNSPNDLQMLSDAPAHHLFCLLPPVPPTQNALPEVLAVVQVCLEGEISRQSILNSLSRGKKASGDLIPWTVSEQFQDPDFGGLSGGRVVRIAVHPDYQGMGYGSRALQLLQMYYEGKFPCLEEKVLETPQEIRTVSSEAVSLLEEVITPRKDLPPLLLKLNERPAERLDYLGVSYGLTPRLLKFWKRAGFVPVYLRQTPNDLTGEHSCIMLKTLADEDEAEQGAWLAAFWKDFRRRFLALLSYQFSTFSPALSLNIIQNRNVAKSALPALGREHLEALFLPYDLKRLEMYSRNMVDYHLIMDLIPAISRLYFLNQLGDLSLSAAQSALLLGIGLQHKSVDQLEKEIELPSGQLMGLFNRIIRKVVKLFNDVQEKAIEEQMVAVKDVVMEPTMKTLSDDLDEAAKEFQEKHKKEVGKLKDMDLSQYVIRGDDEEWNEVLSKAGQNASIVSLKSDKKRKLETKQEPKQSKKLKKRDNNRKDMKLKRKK
Experiment: co-IP; cells lysed in NP-40 buffer; lysate at 1 mg/mL incubated overnight at 4 °C with anti-NAT10, anti-SRSF2 or IgG control antibody (10 µg); Protein A/G agarose beads 4 h at 4 °C; three washes with TBS; Western blot

- binding: binds
Substance: SRSF2 (from UniProt Q62093 1-221)
